Reference: article PMC12087091

Chains of the proteins cited; added tags and fusions are not shown.
UniProt P17174: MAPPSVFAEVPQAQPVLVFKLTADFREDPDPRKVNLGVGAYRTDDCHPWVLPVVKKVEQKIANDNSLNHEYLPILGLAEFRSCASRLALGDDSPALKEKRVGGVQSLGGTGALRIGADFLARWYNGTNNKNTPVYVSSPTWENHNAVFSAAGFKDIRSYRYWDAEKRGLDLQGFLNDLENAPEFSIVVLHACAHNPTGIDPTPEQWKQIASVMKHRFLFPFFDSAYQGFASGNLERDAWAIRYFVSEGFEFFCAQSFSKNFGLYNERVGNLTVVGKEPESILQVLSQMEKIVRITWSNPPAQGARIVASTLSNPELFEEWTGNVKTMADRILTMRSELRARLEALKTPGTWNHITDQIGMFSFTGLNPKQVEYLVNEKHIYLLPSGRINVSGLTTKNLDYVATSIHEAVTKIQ
UniProt P45974: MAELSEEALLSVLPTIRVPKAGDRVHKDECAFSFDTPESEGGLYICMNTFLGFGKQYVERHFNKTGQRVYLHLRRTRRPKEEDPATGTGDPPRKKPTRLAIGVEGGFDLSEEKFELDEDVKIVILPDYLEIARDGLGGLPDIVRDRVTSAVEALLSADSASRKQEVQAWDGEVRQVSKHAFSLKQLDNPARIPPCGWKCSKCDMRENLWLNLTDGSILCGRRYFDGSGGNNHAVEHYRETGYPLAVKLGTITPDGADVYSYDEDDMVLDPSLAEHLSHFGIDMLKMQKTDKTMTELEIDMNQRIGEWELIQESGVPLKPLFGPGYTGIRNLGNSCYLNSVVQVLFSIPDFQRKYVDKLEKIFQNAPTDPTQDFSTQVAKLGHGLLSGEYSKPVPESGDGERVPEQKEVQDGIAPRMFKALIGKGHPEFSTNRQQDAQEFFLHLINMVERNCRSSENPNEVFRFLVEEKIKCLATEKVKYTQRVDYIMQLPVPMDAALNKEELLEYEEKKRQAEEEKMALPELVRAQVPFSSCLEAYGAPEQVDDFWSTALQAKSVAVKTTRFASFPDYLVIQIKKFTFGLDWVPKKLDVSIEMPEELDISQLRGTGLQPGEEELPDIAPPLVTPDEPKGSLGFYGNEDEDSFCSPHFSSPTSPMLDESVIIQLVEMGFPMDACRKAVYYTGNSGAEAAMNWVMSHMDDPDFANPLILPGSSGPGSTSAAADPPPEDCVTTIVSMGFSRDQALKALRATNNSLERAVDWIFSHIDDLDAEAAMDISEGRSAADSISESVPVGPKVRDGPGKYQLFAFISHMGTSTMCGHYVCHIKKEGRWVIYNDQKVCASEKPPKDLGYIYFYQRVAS

B1: Annexin A1 (ANXA1), endogenous (protein, UniProt P04083 1-346)
chain: MAMVSEFLKQAWFIENEEQEYVQTVKSSKGGPGSAVSPYPTFNPSSDVAALHKAIMVKGVDEATIIDILTKRNNAQRQQIKAAYLQETGKPLDETLKKALTGHLEEVVLALLKTPAQFDADELRAAMKGLGTDEDTLIEILASRTNKEIRDINRVYREELKRDLAKDITSDTSGDFRNALLSLAKGDRSEDFGVNEDLADSDARALYEAGERRKGTDVNVFNTILTTRSYPQLRRVFQKYTKYSKHDMNKVLDLELKGDIEKCLTAIVKCATSKPAFFAEKLHQAMKGVGTRHKALIRIMVSRSEIDMNDIKAFYQKMYGISLCQAILDETKGDYEKILVALCGGN

Key:
[1] = biological target: T1, Annexin A1 (ANXA1), endogenous (human (endogenous in HUCCT1 and HCCC9810)) (UniProt P04083); experiment: affinity purification with mass spectrometry; IP of ANXA1 from cell lysate with antibody-conjugated magnetic beads, SDS-PAGE, bands excised, trypsin digestion, MS; cell line not stated
T1 sequence: B1 chain

[2] = biological target: Glutamic-oxaloacetic transaminase 1 (GOT1), endogenous (human (endogenous in HUCCT1 and HCCC9810)) (UniProt P17174); experiment: affinity purification with mass spectrometry; IP with GOT1 as the bait protein from cell lysate with antibody-conjugated magnetic beads, SDS-PAGE, trypsin digestion, MS; cell line not stated

Molecule	binding [1]	binding [2]
Glutamic-oxaloacetic transaminase 1 (GOT1), endogenous (from UniProt P17174 1-413) (enzyme)	binds	
Ubiquitin-specific protease 5 (USP5), endogenous (from UniProt P45974 1-858) (enzyme)	binds	binds
B1		binds

No constants are given. Whether binding was seen depends on the method and setting. Binding seen in cells or lysates may run through a third protein. These calls come from enrichment with a bait or labelling near it, and not all partners need be listed.
